According to PubChem BioAssay AID204 (DTP/NCI, 2004):
The list shows only some results of the screen, not a fair sample: its compounds were picked by chemical class. Other doses and runs of a compound may be missing. T/C gives the treated animals as a percentage of the vehicle group. For survival time, this PubChem deposit counts one and a half times the control or more as active, and values a quarter to a half above the control carry no call in these data; other NCI protocols may use other cut-offs. Some entries show no survivor count and are marked so; the dose need not have been tolerated. Schedules are NCI's codes, taken here to give the interval after Q, in days (D) or hours (H), and the number of doses after X. Some entries were tested several times; their values stand side by side, smallest first.

Test system: BDF1 mice, P288 methotrexate-resistant leukemia, survival T/C
Assay: NCI In Vivo Anticancer Drug Screen. Data for tumor model P288 Lymphocytic Leukemia resistant to methotrexate; NSC 740 (intraperitoneal) in B6D2F1 (BDF1) mice
Conditions: T/C endpoint: median survival time, schedule: Q01DX010 (ip), vehicle: saline, higher T/C = longer survival
Procedure: The antitumor activity of compounds was measured in mice bearing transplantable tumors. Survival or tumor size were measured and the results are expressed as the measurement made in the treated group (T) divided by the measurement made in the vehicle treated control group (C). The tumor model used in this assay is P288 Lymphocytic Leukemia resistant to methotrexate; NSC 740 (intraperitoneal) in B6D2F1 (BDF1) mice

Compound	T/C (dose: 0.63 mg/kg/injection)	T/C (dose: 1.25 mg/kg/injection)	T/C (dose: 2.5 mg/kg/injection)	T/C (dose: 5.0 mg/kg/injection)	T/C (dose: 0.5 mg/kg/injection)	T/C (dose: 1.0 mg/kg/injection)	T/C (dose: 2.0 mg/kg/injection)	T/C (dose: 4.0 mg/kg/injection)	further results
NC1CCCCC1.NP(=O)(O)N(CCCl)CCCl	–	–	–	–	–	–	–	–	T/C (dose: 15.6 mg/kg/injection): 140 % of control [survivor count not shown]; T/C (dose: 31.3 mg/kg/injection): 172 % of control [survivor count not shown]; T/C (dose: 62.5 mg/kg/injection): 118 % of control [survivor count not shown]
O=C(O)CN(CCCl)CCCl	121 [survivor count not shown] and 127 % of control [survivor count not shown]	122 [survivor count not shown] and 136 % of control [survivor count not shown]	136 [survivor count not shown] and 145 % of control [survivor count not shown]	181 % of control [survivor count not shown]	–	–	–	–	–
CC(C(=O)O)N(CCCl)CCCl (centres undefined)	–	–	–	–	100 [survivor count not shown] and 121 % of control [survivor count not shown]	127 [survivor count not shown] and 136 % of control [survivor count not shown]	136 [survivor count not shown] and 147 % of control [survivor count not shown]	100 [survivor count not shown] and 163 % of control [survivor count not shown]	–
NC(Cc1cccc(N(CCCl)CCCl)c1)C(=O)O (centres undefined)	100 [survivor count not shown] and 115 % of control [survivor count not shown]	119 [survivor count not shown] and 145 % of control [survivor count not shown]	111 [survivor count not shown] and 159 % of control [survivor count not shown]	109 % of control [survivor count not shown]	–	–	–	–	–
NC(Cc1ccccc1N(CCCl)CCCl)C(=O)O (centres undefined)	–	–	–	–	140 [survivor count not shown] and 145 % of control [survivor count not shown]	133 [survivor count not shown] and 172 % of control [survivor count not shown]	145 [survivor count not shown] and 181 % of control [survivor count not shown]	127 % of control [survivor count not shown]	T/C (dose: 0.25 mg/kg/injection): 104 % of control [survivor count not shown]
ClCCN(CCCl)Cc1nc2ccccc2[nH]1	–	95 % of control [survivor count not shown]	95 [survivor count not shown] and 104 % of control [survivor count not shown]	112 [survivor count not shown] and 122 % of control [survivor count not shown]	–	–	–	–	T/C (dose: 10.0 mg/kg/injection): 133 [survivor count not shown] and 140 % of control [survivor count not shown]
